The list shows a part of the results.
Columns and labels:
Experiment in all cases: log2 fold change, soluble protein after heating vs DMSO (PISA); higher = thermal stabilisation; K562 cells, 10 uM, 30 min; active = over 0.2 and 3.5 SD of the protein, either way, in both replicates (recomputed)
[1] = compound: COC1=CC=C(C=C1)CN2C=CC3=C2C=C(C=C3)C(=O)NO
Procedure, shortened: (§1)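 K562 cells at 2×10^6 cells/mL were treated with 10 μM compound for 30 min. Aliquots were heated for 3 min across 48°C-58°C, pooled, and extracted in PBS with 0.5% NP-40 at 4°C; soluble protein was the supernatant after 21,000xg for 90 min. Soluble protein was quantified by TMTpro 16plex LC-MS/MS with channel sums equalised, and reported as log2 fold change in thermal stability against DMSO controls, with values from duplicates.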

Sequences of proteins named here, by UniProt entry; tags and fusion partners are left off. A change or cut given only in a name is not applied to a line headed by its entry.
UniProt Q9NZW5: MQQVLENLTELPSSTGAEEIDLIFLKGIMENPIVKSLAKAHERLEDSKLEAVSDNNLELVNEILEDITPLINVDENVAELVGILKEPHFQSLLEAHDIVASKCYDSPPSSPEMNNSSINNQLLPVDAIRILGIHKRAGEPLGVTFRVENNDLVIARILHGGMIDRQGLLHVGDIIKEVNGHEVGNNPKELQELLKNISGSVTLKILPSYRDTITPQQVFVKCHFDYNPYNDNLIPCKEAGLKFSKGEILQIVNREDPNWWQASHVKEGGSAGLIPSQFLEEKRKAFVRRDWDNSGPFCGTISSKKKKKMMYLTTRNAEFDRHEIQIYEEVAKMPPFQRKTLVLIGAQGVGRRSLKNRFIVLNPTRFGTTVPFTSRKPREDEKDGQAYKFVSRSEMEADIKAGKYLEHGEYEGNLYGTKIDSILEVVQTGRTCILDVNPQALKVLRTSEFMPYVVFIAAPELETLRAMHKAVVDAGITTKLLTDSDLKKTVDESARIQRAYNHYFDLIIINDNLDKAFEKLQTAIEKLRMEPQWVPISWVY
UniProt Q9NYP9: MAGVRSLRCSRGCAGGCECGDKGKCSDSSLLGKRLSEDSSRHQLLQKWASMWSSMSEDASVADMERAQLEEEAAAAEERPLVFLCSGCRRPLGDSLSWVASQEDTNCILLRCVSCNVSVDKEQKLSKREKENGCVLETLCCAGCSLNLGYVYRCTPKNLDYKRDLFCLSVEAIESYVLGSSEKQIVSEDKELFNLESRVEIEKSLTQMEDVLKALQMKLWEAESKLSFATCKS
UniProt Q7L1V2: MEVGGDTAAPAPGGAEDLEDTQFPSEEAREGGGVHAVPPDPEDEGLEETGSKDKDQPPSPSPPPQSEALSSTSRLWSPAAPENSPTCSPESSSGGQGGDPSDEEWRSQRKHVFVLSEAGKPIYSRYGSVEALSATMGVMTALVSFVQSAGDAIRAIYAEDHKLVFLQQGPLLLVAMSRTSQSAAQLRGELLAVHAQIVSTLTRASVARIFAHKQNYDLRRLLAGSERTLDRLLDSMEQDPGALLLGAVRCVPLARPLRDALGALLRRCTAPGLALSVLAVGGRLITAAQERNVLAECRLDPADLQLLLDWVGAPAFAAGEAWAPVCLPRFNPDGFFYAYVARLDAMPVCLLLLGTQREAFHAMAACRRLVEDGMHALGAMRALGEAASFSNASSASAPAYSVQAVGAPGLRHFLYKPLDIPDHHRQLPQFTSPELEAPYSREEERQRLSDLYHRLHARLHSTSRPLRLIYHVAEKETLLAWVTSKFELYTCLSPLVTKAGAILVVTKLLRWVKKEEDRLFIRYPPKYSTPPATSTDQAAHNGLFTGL
UniProt Q9UBU8, whole entry, looked up: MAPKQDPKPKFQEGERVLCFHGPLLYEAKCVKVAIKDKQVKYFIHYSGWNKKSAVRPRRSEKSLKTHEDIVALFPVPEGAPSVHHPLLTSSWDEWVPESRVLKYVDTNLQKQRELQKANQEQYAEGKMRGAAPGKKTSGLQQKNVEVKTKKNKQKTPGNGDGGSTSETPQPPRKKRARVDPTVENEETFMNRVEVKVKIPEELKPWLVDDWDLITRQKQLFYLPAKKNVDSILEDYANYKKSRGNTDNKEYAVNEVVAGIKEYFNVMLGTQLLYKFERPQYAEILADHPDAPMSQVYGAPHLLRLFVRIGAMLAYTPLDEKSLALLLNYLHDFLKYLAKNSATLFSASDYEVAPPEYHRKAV
UniProt O95822: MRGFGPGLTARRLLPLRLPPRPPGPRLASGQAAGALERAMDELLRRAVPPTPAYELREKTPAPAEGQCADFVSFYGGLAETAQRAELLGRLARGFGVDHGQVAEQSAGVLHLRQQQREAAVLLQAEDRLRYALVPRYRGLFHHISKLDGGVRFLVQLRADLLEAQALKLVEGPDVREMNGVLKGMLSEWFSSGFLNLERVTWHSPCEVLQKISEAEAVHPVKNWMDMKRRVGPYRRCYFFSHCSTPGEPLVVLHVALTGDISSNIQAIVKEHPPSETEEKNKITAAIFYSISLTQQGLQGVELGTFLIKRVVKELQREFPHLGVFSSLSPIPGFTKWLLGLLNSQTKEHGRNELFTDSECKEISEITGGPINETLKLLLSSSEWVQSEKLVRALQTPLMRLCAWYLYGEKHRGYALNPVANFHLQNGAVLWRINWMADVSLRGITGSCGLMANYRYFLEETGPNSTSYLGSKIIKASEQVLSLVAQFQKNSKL
UniProt Q8TAP9: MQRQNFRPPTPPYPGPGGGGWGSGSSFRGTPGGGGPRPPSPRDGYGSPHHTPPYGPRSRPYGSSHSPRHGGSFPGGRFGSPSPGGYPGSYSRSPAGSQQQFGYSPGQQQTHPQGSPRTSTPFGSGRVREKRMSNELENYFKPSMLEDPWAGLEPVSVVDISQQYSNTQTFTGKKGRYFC
UniProt Q03111: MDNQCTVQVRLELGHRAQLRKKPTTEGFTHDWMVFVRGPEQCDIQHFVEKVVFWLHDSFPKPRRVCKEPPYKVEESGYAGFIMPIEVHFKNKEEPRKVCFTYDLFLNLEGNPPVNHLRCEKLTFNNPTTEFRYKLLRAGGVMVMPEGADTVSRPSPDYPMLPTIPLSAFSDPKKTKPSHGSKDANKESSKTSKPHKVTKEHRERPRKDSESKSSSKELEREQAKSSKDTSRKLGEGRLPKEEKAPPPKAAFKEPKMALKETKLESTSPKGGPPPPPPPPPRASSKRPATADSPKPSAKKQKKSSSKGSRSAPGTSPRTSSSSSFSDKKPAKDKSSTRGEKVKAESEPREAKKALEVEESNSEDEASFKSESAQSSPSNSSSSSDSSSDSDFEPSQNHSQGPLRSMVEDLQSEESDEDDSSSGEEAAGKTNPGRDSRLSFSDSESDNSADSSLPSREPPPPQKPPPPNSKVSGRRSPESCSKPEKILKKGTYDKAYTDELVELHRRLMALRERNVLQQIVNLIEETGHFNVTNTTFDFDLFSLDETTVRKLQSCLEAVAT
UniProt Q9NZB8: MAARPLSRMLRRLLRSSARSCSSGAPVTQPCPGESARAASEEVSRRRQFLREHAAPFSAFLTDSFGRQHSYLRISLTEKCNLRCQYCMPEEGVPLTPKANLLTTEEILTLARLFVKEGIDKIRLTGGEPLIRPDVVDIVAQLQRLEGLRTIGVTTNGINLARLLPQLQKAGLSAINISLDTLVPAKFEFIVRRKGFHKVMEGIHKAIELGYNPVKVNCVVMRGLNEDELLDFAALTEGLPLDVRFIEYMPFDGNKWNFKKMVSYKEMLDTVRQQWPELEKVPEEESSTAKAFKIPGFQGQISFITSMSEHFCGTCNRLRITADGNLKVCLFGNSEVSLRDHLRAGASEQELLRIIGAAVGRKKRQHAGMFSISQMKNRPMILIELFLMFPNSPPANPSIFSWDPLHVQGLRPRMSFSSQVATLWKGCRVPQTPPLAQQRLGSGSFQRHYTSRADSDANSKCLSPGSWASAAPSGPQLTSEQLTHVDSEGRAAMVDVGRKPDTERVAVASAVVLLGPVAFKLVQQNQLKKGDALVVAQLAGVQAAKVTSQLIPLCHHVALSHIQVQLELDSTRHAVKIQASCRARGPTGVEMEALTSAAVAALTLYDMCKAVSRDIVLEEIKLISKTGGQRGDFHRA
UniProt Q8IY33: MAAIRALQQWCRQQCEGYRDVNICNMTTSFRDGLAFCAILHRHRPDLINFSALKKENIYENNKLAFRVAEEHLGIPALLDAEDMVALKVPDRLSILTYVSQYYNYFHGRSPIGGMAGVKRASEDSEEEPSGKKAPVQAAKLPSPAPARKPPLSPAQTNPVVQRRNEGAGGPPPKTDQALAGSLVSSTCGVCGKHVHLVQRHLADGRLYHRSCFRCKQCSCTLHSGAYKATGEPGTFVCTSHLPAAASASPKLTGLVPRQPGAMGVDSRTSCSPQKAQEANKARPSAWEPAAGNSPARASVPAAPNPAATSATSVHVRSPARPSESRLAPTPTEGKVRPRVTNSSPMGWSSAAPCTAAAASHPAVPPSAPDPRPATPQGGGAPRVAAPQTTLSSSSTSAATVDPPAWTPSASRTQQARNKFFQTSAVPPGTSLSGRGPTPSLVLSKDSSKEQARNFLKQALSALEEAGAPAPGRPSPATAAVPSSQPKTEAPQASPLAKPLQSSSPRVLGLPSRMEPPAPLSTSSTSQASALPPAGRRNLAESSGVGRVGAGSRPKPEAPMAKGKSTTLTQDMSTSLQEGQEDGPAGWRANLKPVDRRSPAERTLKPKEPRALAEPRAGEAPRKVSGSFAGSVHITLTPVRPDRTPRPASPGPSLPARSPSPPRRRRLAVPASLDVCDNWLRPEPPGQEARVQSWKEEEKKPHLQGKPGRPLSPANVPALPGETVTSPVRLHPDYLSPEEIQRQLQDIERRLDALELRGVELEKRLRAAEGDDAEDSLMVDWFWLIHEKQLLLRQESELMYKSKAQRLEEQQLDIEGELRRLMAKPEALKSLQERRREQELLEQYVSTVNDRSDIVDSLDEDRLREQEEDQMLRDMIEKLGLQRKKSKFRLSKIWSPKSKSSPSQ

filanesib = compound: CON(C)C(=O)N1N=C(c2cc(F)ccc2F)S[C@@]1(CCCN)c1ccccc1 [filanesib]
Procedure, shortened: as §1

zotarolimus = compound: CO[C@H]1C[C@@H]2CC[C@@H](C)[C@@](O)(O2)C(=O)C(=O)N2CCCC[C@H]2C(=O)O[C@H]([C@H](C)C[C@@H]2CC[C@H](n3cnnn3)[C@H](OC)C2)CC(=O)[C@H](C)/C=C(\C)[C@@H](O)[C@@H](OC)C(=O)[C@H](C)C[C@H](C)/C=C/C=C/C=C/1C [zotarolimus]
Procedure, shortened: as §1

idasanutlin = compound: COc1cc(C(=O)O)ccc1NC(=O)[C@@H]1N[C@@H](CC(C)(C)C)[C@](C#N)(c2ccc(Cl)cc2F)[C@H]1c1cccc(Cl)c1F [idasanutlin]
Procedure, shortened: as §1

alisertib = compound: COc1cc(Nc2ncc3c(n2)-c2ccc(Cl)cc2C(c2c(F)cccc2OC)=NC3)ccc1C(=O)O [alisertib]
Procedure, shortened: as §1

[2] = compound: COc1cc2nc(-c3cc(F)ccc3O)nc(N[C@@H]3CNC[C@H]3C(C)(C)O)c2cc1OC
Procedure, shortened: as §1

gefitinib = compound: COc1cc2ncnc(Nc3ccc(F)c(Cl)c3)c2cc1OCCCN1CCOCC1 [gefitinib]
Procedure, shortened: as §1

[3] = compound: COc1cccc2cc(-c3nc([C@H]4CC[C@H](C(=O)O)CC4)n4ncnc(N)c34)[nH]c12
Procedure, shortened: as §1

lapatinib = compound: CS(=O)(=O)CCNCc1ccc(-c2ccc3ncnc(Nc4ccc(OCc5cccc(F)c5)c(Cl)c4)c3c2)o1 [lapatinib]
Procedure, shortened: as §1

pictilisib = compound: CS(=O)(=O)N1CCN(Cc2cc3nc(-c4cccc5[nH]ncc45)nc(N4CCOCC4)c3s2)CC1 [pictilisib]
Procedure, shortened: as §1

Measured: log2 fold change

MRPL15 (UniProt Q9P015)
inactive: [1] 0.016 | filanesib 0.222 | zotarolimus 0.072 | idasanutlin -0.051 | alisertib -0.017 | [2] -0.036 | gefitinib -0.059 | [3] -0.056 | lapatinib 0.102 | pictilisib -0.148

MPP6 (UniProt Q9NZW5)
inactive: [1] 0.035 | filanesib -0.019 | zotarolimus -0.002 | idasanutlin 0.018 | alisertib -0.024 | [2] -0.043 | gefitinib 0.047 | [3] 0.026 | lapatinib 0.05 | pictilisib 0.088

MRPL35 (UniProt Q9NZE8)
inactive: [1] -0.09 | filanesib 0.234 | zotarolimus 0.082 | idasanutlin 0.035 | alisertib -0.217 | [2] -0.084 | gefitinib -0.076 | [3] -0.019 | lapatinib 0.07 | pictilisib -0.265

MRPL43 isoform 4 (UniProt Q8N983)
inactive: [1] -0.057 | filanesib 0.09 | zotarolimus 0.092 | idasanutlin -0.01 | alisertib -0.174 | [2] -0.086 | gefitinib -0.002 | [3] -0.027 | lapatinib 0.165 | pictilisib -0.13

MIS18A (UniProt Q9NYP9)
inactive: [1] 0.064 | filanesib -0.002 | zotarolimus 0.006 | idasanutlin 0.005 | alisertib -0.036 | [2] -0.037 | gefitinib 0.035 | [3] -0.028 | lapatinib 0.042 | pictilisib 0.023

Quoted from the results shown (two entries):
MRPL15 (UniProt Q9P015)
inactive: [1] 0.016 | filanesib 0.222 | zotarolimus 0.072 | idasanutlin -0.051 | alisertib -0.017 | [2] -0.036 | gefitinib -0.059 | [3] -0.056 | lapatinib 0.102 | pictilisib -0.148

MPP6 (UniProt Q9NZW5)
inactive: [1] 0.035 | filanesib -0.019 | zotarolimus -0.002 | idasanutlin 0.018 | alisertib -0.024 | [2] -0.043 | gefitinib 0.047 | [3] 0.026 | lapatinib 0.05 | pictilisib 0.088

(further entries)

MON1B (UniProt Q7L1V2)
inactive: [1] -0.012 | filanesib 0.029 | zotarolimus -0.008 | idasanutlin -0.056 | alisertib -0.136 | [2] 0.065 | gefitinib -0.012 | [3] 0.037 | lapatinib 0.055 | pictilisib 0.029

MORF4L1 isoform 2 (UniProt Q9UBU8)
inactive: [1] 0.017 | filanesib 0.032 | zotarolimus 0.007 | idasanutlin 0.002 | alisertib -0.053 | [2] -0.069 | gefitinib -0.032 | [3] -0.014 | lapatinib 0.017 | pictilisib -0.057

MLYCD (UniProt O95822)
inactive: [1] -0.033 | filanesib -0.076 | zotarolimus -0.008 | idasanutlin -0.095 | alisertib -0.079 | [2] -0.107 | gefitinib 0.073 | [3] 0.069 | lapatinib 0.005 | pictilisib 0.074

MPLKIP (UniProt Q8TAP9)
inactive: [1] -0.025 | filanesib 0.096 | zotarolimus -0.04 | idasanutlin 0.034 | alisertib 0.003 | [2] -0.059 | gefitinib -0.011 | [3] 0.049 | lapatinib 0.04 | pictilisib 0.101

MRPL37 (UniProt Q9BZE1)
inactive: [1] -0.123 | filanesib -0.057 | zotarolimus 0.056 | idasanutlin -0.117 | alisertib -0.028 | [2] 0.001 | gefitinib -0.052 | [3] -0.009 | lapatinib 0.083 | pictilisib 0.036

MRPL2 (UniProt Q5T653)
inactive: [1] -0.08 | filanesib 0.235 | zotarolimus 0.094 | idasanutlin -0.195 | alisertib -0.04 | [2] -0.105 | gefitinib -0.031 | [3] -0.144 | lapatinib 0.266 | pictilisib 0.01

MLLT1 (UniProt Q03111)
inactive: [1] -0.091 | filanesib 0 | zotarolimus 0 | idasanutlin 0.029 | alisertib -0.156 | [2] 0.031 | gefitinib -0.048 | [3] -0.056 | lapatinib -0.004 | pictilisib -0.034

MOCS1 isoform 8 (UniProt Q9NZB8)
inactive: [1] -0.098 | filanesib -0.009 | zotarolimus 0.027 | idasanutlin -0.005 | alisertib -0.054 | [2] -0.014 | gefitinib 0.087 | [3] -0.001 | lapatinib 0.047 | pictilisib 0.117

MICALL2 (UniProt Q8IY33)
inactive: [1] 0.139 | filanesib -0.217 | zotarolimus 0.026 | idasanutlin 0.086 | alisertib -0.072 | [2] -0.217 | gefitinib 0.14 | [3] 0.053 | lapatinib 0 | pictilisib 0.053
